The target in the assay is T1, Rpn1^(391 to 642) fused to Gal4-DBD (S. cerevisiae) (UniProt P38764).
T1 sequence: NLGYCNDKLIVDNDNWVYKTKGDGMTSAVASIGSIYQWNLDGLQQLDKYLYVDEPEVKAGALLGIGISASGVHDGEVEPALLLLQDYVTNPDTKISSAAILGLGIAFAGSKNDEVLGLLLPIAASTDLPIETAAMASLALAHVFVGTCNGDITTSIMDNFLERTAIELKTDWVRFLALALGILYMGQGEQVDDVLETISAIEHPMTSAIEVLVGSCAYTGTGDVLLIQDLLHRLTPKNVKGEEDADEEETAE
Nature of the assay: two-hybrid; reporter strain MaV203; Gal4-DBD fused to Rpn1 391-642 and Gal4-AD fusions; interaction indicated by growth on 100 mM 3-AT and lack of growth on 0.2% 5FOA.

No constants are given. Whether binding was seen depends on the method and setting. Tags and fused reporters may be left off the sequences shown.

Turning to “Gal4-AD fused to Ddi1ΔUBL (S. cerevisiae) (domain or fragment)”, the binding result was “no binding”.
